Experimental findings from patent US20130066055A1 (Bayer Intellectual Property GmbH, priority 2011, published 2013) are described below.

The nature of the data set: general procedure: solution-phase peptide synthesis; HATU/DIPEA or EDC/HOBt/DIPEA. The conditions noted are these: late stage modification step, trifluoroacetate.
In the case of “N-(2-aminoethyl)-N-methyl-L-valyl-N-[(3R,4S,5S)-1-{(2S)-2-[(1R,2R)-3-{[(2S)-3-(1H-indol-3-yl)-1-(1,2-oxazinan-2-yl)-1-oxopropan-2-yl]amino}-1-methoxy-2-methyl-3-oxopropyl]pyrrolidin-1-yl}-3-methoxy-5-methyl-1-oxoheptan-4-yl]”, the “final purity (method not given)” value is 65% purity and the step yield is recorded as 40% of theory. For “N-(6-aminohexyl)-N-methyl-L-valyl-N-[(3R,4S,5S)-3-methoxy-1-{(2S)-2-[(1R,2R)-1-methoxy-2-methyl-3-oxo-3-{[(1S)-2-phenyl-1-(5-phenyl-1,3,4-oxadiazol-2-yl)ethyl]amino}propyl]pyrrolidin-1-yl}-5-methyl-1-oxoheptan-4-yl]”, the step yield is reported as 86% of theory. Regarding “N-methyl-L-valyl-N-[(3R,4S,5S)-3-methoxy-1-{(2S)-2-[(1R,2R)-1-methoxy-2-methyl-3-oxo-3-{[(2R)-1-phenyl-4-(4-sulphophenyl)butan-2-yl]amino}propyl]pyrrolidin-1-yl}-5-methyl-1-oxoheptan-4-yl]-N-methyl-L-valinamide trifluoroacetate”, the “final purity (method not given)” value stood at 90% purity and the step yield is 85% of theory.

For the substance “N-methyl-L-valyl-N-[(3R,4S,5S)-3-methoxy-1-{(2S)-2-[(1R,2R)-1-methoxy-2-methyl-3-{[(2S)-1-(1,2-oxazinan-2-yl)-1-oxo-3-phenylpropan-2-yl]amino}-3-oxopropyl]pyrrolidin-1-yl}-5-methyl-1-oxoheptan-4-yl]-N-methyl-L-valinamide trifluoroacetate”, the step yield is on record as 54% of theory. Still for that read-out and setting: the figure for “N-methyl-L-valyl-N-[(3R,4S,5S)-3-methoxy-1-{(2S)-2-[(1R,2R)-1-methoxy-2-methyl-3-oxo-3-{[(1R)-2-phenyl-1-(5-phenyl-1,3,4-oxadiazol-2-yl)ethyl]amino}propyl]pyrrolidin-1-yl}-5-methyl-1-oxoheptan-4-yl]-N-methyl-L-valinamide trifluoroacetate” is 99% of theory; for “N-(3-carboxypropyl)-N-methyl-L-valyl-N-[(3R,4S,5S)-3-methoxy-1-{(2S)-2-[(1R,2R)-1-methoxy-3-{[(2S)-1-methoxy-1-oxo-3-phenylpropan-2-yl]amino}-2-methyl-3-oxopropyl]pyrrolidin-1-yl}-5-methyl-1-oxoheptan-4-yl]-N-methyl-L-valinamide” it is 22% of theory. With “N-methyl-L-valyl-N-[(3R,4S,5S)-3-methoxy-1-{(2S)-2-[(1R,2R)-1-methoxy-2-methyl-3-{[(2S,3S)-1-(1,2-oxazinan-2-yl)-1-oxo-3-phenylbutan-2-yl]amino}-3-oxopropyl]pyrrolidin-1-yl}-5-methyl-1-oxoheptan-4-yl]-N-methyl-L-valinamide trifluoroacetate”, the step yield was 46% of theory.

As for “N-methyl-L-valyl-N-[(3R,4S,5S)-1-{(2S)-2-[(1R,2R)-3-{[(2S)-1-(adamantan-1-ylmethoxy)-1-oxo-3-phenylpropan-2-yl]amino}-1-methoxy-2-methyl-3-oxopropyl]pyrrolidin-1-yl}-3-methoxy-5-methyl-1-oxoheptan-4-yl]-N-methyl-L-valinamide trifluoroacetate”, the step yield is listed as 81% of theory.
